The supplement of paper PMC6078165

Test system: Hs578T
Test: relative JC-1 red fluorescence (viability) vs pre-drug, coculture with fibroblast (fraction); higher = more viable cancer cells
Procedure: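 JC-1 labelled TNBC cells cocultured 1:1 (1,500 cells each) with CellTrace Violet stained primary or stromal fibroblasts in 384-well plates in FluoroBrite medium, treated with one of 42 anticancer drugs at 0.1, 1, 10 or 100 uM. JC-1 red fluorescence (mitochondrial integrity in cancer cells only) was read by plate reader every 8 h for 72 h. Values are normalised to each well's pre-drug value. The stock of one drug was tenfold lower, so its dose labels may be too high.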

CC(C)C[C@H](NC(=O)[C@@H](COC(C)(C)C)NC(=O)[C@H](Cc1ccc(O)cc1)NC(=O)[C@H](CO)NC(=O)[C@H](Cc1c[nH]c2ccccc12)NC(=O)[C@H](Cc1cnc[nH]1)NC(=O)[C@@H]1CCC(=O)N1)C(=O)N[C@@H](CCCNC(=N)N)C(=O)N1CCC[C@H]1C(=O)NNC(N)=O [Goserelin]
relative JC-1 red fluorescence
Conditions	8 h	16 h	24 h	32 h	40 h	48 h	56 h	64 h	72 h
0.1 µM	0.866	0.797	0.763	0.736	0.679	0.641	0.617	0.576	0.561
1 µM	0.871	0.759	0.732	0.7	0.644	0.609	0.594	0.557	0.533
10 µM	0.90939	0.7902	0.72741	0.6821	0.614	0.573	0.539	0.501	0.481
100 µM	0.916	0.8207	0.784	0.752	0.696	0.654	0.632	0.59	0.574

relative JC-1 red fluorescence
Conditions	8 h	16 h	24 h	32 h	40 h	48 h	56 h	64 h	72 h
0.1 µM, coculture fibroblast: C12385	0.827	0.701	0.641	0.549	0.48	0.449	0.425	0.415	0.406
0.1 µM, coculture fibroblast: H6013	0.8222	0.766	0.7102	0.684	0.631	0.609	0.583	0.574	0.546
0.1 µM, coculture fibroblast: H6019	0.761	0.684	0.6693	0.5942	0.563	0.542	0.516	0.499	0.478
0.1 µM, coculture fibroblast: H6076	0.947	0.879	0.813	0.788	0.746	0.738	0.704	0.693	0.688
0.1 µM, coculture fibroblast: H6231	0.879	0.767	0.727	0.693	0.63	0.604	0.556	0.542	0.529
0.1 µM, coculture fibroblast: HADF	0.843	0.746	0.66	0.598	0.5419	0.5112	0.48184	0.4741	0.4461
0.1 µM, coculture fibroblast: HCFa	0.828	0.75	0.688	0.63	0.565	0.531	0.5	0.4739	0.4368
0.1 µM, coculture fibroblast: HCPF	0.888	0.809	0.756	0.717	0.66	0.642	0.619	0.585	0.57
0.1 µM, coculture fibroblast: HHSteC	0.8788	0.77433	0.7195	0.664	0.612	0.579	0.553	0.526	0.494
0.1 µM, coculture fibroblast: HMF	0.886	0.797	0.747	0.724	0.667	0.638	0.603	0.587	0.573
0.1 µM, coculture fibroblast: HPFa	0.90761	0.804	0.727	0.662	0.602	0.562	0.516	0.494	0.452
0.1 µM, coculture fibroblast: HUF	0.865	0.719	0.696	0.587	0.525	0.489	0.454	0.4456	0.431
0.1 µM, coculture fibroblast: Hs27A	0.8857	0.7754	0.7423	0.6916	0.6359	0.618	0.574	0.562	0.51
0.1 µM, coculture fibroblast: Hs343T	0.938	0.823	0.729	0.696	0.619	0.581	0.5478	0.521	0.51
0.1 µM, coculture fibroblast: WS1	0.8603	0.755	0.684	0.602	0.537	0.506	0.466	0.448	0.438
1 µM, coculture fibroblast: C12385	0.834	0.734	0.6638	0.5698	0.508	0.465	0.435	0.421	0.414
1 µM, coculture fibroblast: H6013	0.9354	0.86	0.798	0.76	0.715	0.703	0.684	0.676	0.645
1 µM, coculture fibroblast: H6019	0.756	0.64867	0.651	0.557	0.52	0.498	0.471	0.447	0.418
1 µM, coculture fibroblast: H6076	0.8916	0.786	0.742	0.725	0.69	0.693	0.672	0.674	0.683
1 µM, coculture fibroblast: H6231	0.869	0.763	0.673	0.646	0.575	0.554	0.51	0.485	0.471
1 µM, coculture fibroblast: HADF	0.9028	0.8273	0.762	0.728	0.702	0.694	0.661	0.657	0.633
1 µM, coculture fibroblast: HCFa	0.865	0.758	0.7303	0.6798	0.619	0.599	0.565	0.548	0.507
1 µM, coculture fibroblast: HCPF	0.885	0.773	0.7019	0.675	0.602	0.574	0.56	0.5236	0.5057
1 µM, coculture fibroblast: HHSteC	0.9133	0.844	0.774	0.721	0.6721	0.631	0.6019	0.5771	0.53326
1 µM, coculture fibroblast: HMF	0.828	0.703	0.649	0.634	0.568	0.532	0.498	0.482	0.466
1 µM, coculture fibroblast: HPFa	0.9234	0.886	0.755	0.6768	0.611	0.563	0.505	0.479	0.427
1 µM, coculture fibroblast: HUF	0.8511	0.747	0.675	0.5626	0.501	0.4647	0.4285	0.417	0.412
1 µM, coculture fibroblast: Hs27A	0.8643	0.802	0.757	0.7141	0.661	0.643	0.598	0.579	0.529
1 µM, coculture fibroblast: Hs343T	0.866	0.764	0.6765	0.6633	0.613	0.585	0.551	0.533	0.545
1 µM, coculture fibroblast: WS1	0.7987	0.7	0.628	0.5302	0.4709	0.461	0.433	0.434	0.435
10 µM, coculture fibroblast: C12385	0.8429	0.704	0.665	0.582	0.521	0.478	0.443	0.422	0.409
10 µM, coculture fibroblast: H6013	0.866	0.788	0.755	0.742	0.718	0.716	0.706	0.694	0.67
10 µM, coculture fibroblast: H6019	0.786	0.721	0.677	0.589	0.546	0.513	0.477	0.452	0.417
10 µM, coculture fibroblast: H6076	0.8932	0.8167	0.764	0.7442	0.7018	0.705	0.678	0.672	0.667
10 µM, coculture fibroblast: H6231	0.918	0.795	0.719	0.675	0.608	0.585	0.535	0.507	0.477
10 µM, coculture fibroblast: HADF	0.891	0.7888	0.712	0.653	0.61	0.573	0.542	0.527	0.494
10 µM, coculture fibroblast: HCFa	0.862	0.767	0.69	0.627	0.558	0.527	0.492	0.48	0.455
10 µM, coculture fibroblast: HCPF	0.938	0.846	0.802	0.758	0.703	0.672	0.643	0.604	0.558
10 µM, coculture fibroblast: HHSteC	0.921	0.824	0.787	0.752	0.69089	0.662	0.629	0.608	0.578
10 µM, coculture fibroblast: HMF	0.885	0.798	0.7183	0.684	0.617	0.588	0.55	0.525	0.504
10 µM, coculture fibroblast: HPFa	0.924	0.831	0.772	0.716	0.666	0.631	0.585	0.56	0.513
10 µM, coculture fibroblast: HUF	0.877	0.729	0.705	0.6035	0.5402	0.5101	0.4767	0.4668	0.454
10 µM, coculture fibroblast: Hs27A	0.9032	0.825	0.766	0.709	0.655	0.634	0.596	0.578	0.525
10 µM, coculture fibroblast: Hs343T	0.923	0.82	0.74	0.709	0.65	0.612	0.56	0.524	0.504
10 µM, coculture fibroblast: WS1	0.839	0.737	0.654	0.561	0.487	0.451	0.415	0.391	0.378
100 µM, coculture fibroblast: C12385	0.8469	0.7439	0.758	0.673	0.624	0.594	0.567	0.556	0.545
100 µM, coculture fibroblast: H6013	0.928	0.858	0.844	0.829	0.799	0.789	0.769	0.757	0.73
100 µM, coculture fibroblast: H6019	0.8043	0.712	0.6702	0.576	0.528	0.4964	0.465	0.436	0.407
100 µM, coculture fibroblast: H6076	0.904	0.813	0.809	0.8023	0.7793	0.787	0.78273	0.789	0.801
100 µM, coculture fibroblast: H6231	0.902	0.805	0.768	0.742	0.679	0.655	0.623	0.603	0.592
100 µM, coculture fibroblast: HADF	0.935	0.869	0.818	0.789	0.748	0.716	0.674	0.657	0.618
100 µM, coculture fibroblast: HCFa	0.879	0.806	0.773	0.724	0.669	0.646	0.617	0.604	0.565
100 µM, coculture fibroblast: HCPF	0.906	0.8	0.757	0.734	0.686	0.668	0.658	0.61	0.5912
100 µM, coculture fibroblast: HHSteC	0.93	0.826	0.769	0.725	0.676	0.649	0.62	0.596	0.56
100 µM, coculture fibroblast: HMF	0.9201	0.811	0.773	0.744	0.692	0.655	0.616	0.587	0.569
100 µM, coculture fibroblast: HPFa	0.912	0.837	0.777	0.719	0.67	0.637	0.591	0.565	0.515
100 µM, coculture fibroblast: HUF	0.8885	0.76862	0.739	0.621	0.563	0.523	0.486	0.471	0.459
100 µM, coculture fibroblast: Hs27A	0.8918	0.842	0.798	0.759	0.701	0.676	0.635	0.616	0.564
100 µM, coculture fibroblast: Hs343T	0.95	0.8452	0.793	0.776	0.704	0.668	0.622	0.591	0.57
100 µM, coculture fibroblast: WS1	0.812	0.746	0.6672	0.565	0.505	0.477	0.441	0.424	0.407

Values are relative to the signal before dosing, not to a vehicle control; the signal also falls without drug.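 Labels refer to human fibroblasts, largely primary: uterine (C12385, HUF), lung (H6013), bone (Hs27A), adrenal (HADF), skin (WS1), plus mammary HMF and breast cancer-associated Hs343T. Cancer lines are basal-like or mesenchymal-like triple-negative breast cancer. The paper counts as hits responses shifting over 3x the replicate standard deviation. The tissue of the other fibroblasts is not given here.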
